Results: PMC6064111
These are yes or no findings as the source states them, for the method shown. Binding seen in cells or lysates may run through a third protein. Some binding calls cover weakened binding; strength is not graded here.

Chains of the proteins cited; added tags and fusions are not shown. Residues count along the entry.
UniProt P02543: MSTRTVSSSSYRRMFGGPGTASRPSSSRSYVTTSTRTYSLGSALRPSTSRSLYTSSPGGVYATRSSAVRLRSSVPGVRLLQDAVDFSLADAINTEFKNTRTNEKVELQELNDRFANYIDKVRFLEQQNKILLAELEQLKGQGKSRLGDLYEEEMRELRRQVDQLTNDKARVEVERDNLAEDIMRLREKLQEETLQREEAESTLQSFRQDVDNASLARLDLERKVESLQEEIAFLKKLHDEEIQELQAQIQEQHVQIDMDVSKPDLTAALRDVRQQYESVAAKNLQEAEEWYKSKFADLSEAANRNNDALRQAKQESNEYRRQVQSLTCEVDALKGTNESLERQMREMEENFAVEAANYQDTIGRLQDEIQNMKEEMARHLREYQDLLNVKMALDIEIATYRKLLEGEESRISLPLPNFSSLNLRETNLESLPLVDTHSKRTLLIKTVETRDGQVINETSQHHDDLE
ANXA2-Flag (1–259 aa) (P19620, residues 1-259): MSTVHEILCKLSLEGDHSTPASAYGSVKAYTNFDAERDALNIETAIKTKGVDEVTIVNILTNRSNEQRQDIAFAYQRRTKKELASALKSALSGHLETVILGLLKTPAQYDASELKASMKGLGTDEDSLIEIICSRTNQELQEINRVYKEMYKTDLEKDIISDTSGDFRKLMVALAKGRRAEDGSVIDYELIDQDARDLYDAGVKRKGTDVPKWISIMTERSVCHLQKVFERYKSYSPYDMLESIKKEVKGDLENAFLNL
ANXA2-Flag (1–174 aa) (P19620, residues 1-174): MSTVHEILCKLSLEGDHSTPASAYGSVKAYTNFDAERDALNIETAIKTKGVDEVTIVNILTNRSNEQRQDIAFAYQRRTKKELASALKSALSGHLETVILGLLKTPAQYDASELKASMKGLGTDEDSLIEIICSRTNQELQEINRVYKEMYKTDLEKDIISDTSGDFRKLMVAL
ANXA2-Flag (1–102 aa) (P19620, residues 1-102): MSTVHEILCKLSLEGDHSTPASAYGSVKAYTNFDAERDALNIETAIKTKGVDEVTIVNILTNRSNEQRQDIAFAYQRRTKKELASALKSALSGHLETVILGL

target: vimentin-HA (full-length vimentin, HA-tagged) (UniProt P02543); assay: co-IP; 293T cells co-transfected with pVIM-HA and pANXA2-Flag or ANXA2 truncation plasmids (8 μg each), lysed at 48 h in 1% Triton X-100; anti-HA or anti-Flag affinity gel 2 h at 4 °C; Western blot for Flag or HA

| Substance | binding |
| --- | --- |
| ANXA2-Flag (1–102 aa) (from UniProt P19620 1-102) (domain or fragment) | no binding |
| ANXA2-Flag (1–174 aa) (from UniProt P19620 1-174) (domain or fragment) | binds |
| ANXA2-Flag (1–259 aa) (from UniProt P19620 1-259) (domain or fragment) | binds |
